# Primary screen of a compound library

Chains of the proteins cited; added tags and fusions are not shown. Residues count along the entry.
UniProt P9WFT3, whole entry: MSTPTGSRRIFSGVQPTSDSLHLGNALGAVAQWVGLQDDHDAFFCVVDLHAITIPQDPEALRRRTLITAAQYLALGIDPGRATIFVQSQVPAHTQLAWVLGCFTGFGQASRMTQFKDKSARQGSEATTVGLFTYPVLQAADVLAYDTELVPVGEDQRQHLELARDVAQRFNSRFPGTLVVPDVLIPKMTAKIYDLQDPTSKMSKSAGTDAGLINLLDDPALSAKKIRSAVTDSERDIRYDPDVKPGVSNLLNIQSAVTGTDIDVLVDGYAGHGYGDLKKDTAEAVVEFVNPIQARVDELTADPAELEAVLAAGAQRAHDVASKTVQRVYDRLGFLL
UniProt P9WNZ1, whole entry: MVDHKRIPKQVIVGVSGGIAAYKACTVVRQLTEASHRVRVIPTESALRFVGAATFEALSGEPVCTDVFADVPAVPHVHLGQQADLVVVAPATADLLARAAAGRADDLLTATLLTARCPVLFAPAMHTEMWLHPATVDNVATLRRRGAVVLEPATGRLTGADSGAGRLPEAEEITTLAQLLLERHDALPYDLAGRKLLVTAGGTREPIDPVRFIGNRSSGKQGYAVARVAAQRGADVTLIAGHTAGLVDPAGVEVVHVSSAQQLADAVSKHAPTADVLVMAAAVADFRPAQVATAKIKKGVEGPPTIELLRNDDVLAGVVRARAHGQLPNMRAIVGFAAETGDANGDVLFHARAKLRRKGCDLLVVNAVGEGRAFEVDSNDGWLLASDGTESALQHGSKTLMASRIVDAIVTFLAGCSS
UniProt A4I591, 1-473: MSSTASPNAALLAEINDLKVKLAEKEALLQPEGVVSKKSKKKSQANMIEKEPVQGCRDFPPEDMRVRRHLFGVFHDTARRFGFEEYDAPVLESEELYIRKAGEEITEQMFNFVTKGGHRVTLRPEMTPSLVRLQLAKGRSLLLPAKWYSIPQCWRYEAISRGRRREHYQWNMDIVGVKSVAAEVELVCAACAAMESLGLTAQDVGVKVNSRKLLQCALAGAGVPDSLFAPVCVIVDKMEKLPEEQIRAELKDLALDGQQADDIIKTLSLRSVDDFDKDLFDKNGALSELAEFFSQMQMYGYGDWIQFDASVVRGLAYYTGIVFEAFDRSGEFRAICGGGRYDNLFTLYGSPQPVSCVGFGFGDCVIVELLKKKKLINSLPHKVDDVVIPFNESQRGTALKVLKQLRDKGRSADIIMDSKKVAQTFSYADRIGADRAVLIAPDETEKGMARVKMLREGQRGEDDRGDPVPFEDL
UniProt I6X8D2, whole entry: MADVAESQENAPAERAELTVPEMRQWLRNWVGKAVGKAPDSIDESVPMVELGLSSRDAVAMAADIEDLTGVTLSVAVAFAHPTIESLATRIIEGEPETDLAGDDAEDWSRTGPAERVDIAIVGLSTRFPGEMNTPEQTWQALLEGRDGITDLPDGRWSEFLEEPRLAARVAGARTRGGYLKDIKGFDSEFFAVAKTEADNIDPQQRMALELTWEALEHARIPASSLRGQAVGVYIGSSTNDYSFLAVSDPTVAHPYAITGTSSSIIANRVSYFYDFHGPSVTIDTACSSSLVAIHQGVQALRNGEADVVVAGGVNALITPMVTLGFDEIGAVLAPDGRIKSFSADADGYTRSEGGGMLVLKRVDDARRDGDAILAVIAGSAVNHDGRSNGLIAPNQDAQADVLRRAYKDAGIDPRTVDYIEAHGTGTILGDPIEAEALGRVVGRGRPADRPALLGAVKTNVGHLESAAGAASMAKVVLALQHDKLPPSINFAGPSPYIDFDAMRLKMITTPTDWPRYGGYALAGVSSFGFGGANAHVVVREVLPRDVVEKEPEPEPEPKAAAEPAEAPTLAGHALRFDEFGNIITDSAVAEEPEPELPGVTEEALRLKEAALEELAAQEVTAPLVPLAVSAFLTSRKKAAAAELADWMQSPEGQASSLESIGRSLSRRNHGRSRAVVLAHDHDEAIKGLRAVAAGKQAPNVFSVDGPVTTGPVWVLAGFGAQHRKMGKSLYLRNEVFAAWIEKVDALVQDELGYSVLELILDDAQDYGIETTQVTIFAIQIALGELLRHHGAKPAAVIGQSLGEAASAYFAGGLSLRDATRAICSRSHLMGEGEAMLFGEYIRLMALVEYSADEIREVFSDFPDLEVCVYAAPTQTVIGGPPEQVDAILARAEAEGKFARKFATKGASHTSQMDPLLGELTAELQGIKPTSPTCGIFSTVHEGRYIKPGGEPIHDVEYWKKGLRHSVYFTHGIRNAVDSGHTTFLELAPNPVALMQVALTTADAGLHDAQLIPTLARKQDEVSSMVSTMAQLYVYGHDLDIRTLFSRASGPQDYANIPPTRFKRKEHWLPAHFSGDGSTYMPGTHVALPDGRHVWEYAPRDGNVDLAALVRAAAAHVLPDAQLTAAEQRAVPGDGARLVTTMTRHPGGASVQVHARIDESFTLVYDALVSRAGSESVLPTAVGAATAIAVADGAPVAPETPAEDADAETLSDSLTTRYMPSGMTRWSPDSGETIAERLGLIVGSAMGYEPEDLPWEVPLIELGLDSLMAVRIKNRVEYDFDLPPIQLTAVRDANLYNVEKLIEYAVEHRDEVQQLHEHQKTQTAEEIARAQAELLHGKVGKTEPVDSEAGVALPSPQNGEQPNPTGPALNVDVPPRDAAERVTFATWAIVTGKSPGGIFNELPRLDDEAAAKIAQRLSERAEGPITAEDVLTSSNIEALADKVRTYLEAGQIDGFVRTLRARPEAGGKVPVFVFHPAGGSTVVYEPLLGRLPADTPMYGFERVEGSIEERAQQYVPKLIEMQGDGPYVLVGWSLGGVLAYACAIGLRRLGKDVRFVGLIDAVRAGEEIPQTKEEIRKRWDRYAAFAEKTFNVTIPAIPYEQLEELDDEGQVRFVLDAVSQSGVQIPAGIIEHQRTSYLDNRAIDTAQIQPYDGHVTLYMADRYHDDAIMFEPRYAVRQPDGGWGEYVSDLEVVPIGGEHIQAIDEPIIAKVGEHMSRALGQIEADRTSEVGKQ

Source: ChEMBL document CHEMBL3988442, “University of Dundee, Small-Polar-MMV Screening Library” (2021).

MtTrpRS: 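Tryptophan-tRNA ligase, Mycobacterium tuberculosis (UniProt P9WFT3). Enzyme assay of tryptophanyl-tRNA synthetase; the read-out is not stated. Compounds at 10 µM. Higher most likely means stronger inhibition; the record gives no direction and few retests gave an IC50. Size under these conditions: about 65,000 compounds, about 64 of them at 50% or above in at least one test.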
CoaBC: 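Enzyme assay of CoaBC with a phosphate dye (Biomol Green) read at 650 nm. Target: Coenzyme A biosynthesis protein CoaBC, Mycobacterium tuberculosis (UniProt P9WNZ1). Compounds at 30 µM. Direction is inferred from only a few compounds that gave an IC50; most scored high, so higher reads as stronger inhibition. Most strong results did not repeat in a second test. Size under these conditions: about 67,000 compounds, about 40 of them at 50% or above in at least one test.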
LiHisRS: 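Histidine-tRNA ligase, Leishmania infantum (UniProt A4I591). Enzyme assay of histidyl-tRNA synthetase; the read-out is not stated. Compounds at 30 µM. Higher reads as stronger inhibition (inferred: compounds with an IC50 in retests scored well above the rest). The assay is labelled LdHisRS but filed under L. infantum. Size under these conditions: about 69,000 compounds, about 410 of them at 50% or above in at least one test.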
Pks13 thioesterase: 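Enzyme assay of the thioesterase domain of polyketide synthase 13; the read-out is not stated. Target: Polyketide synthase Pks13, Mycobacterium tuberculosis (UniProt I6X8D2). Compounds at 30 µM. The record gives no direction; the compounds picked for IC50 retests had high values, so higher reads as stronger inhibition. Size under these conditions: about 67,000 compounds, about 300 of them at 50% or above in at least one test.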

Results are given as percent effect. How 0% and 100% were set is not recorded. Most values in the screen are low, and negative values occur. The compounds are a random part of those screened. Two or more numbers in one place are separate tests of the same structure; such repeats can differ widely. A dash means the value is not listed here; it may have been measured.

structure,MtTrpRS,CoaBC,LiHisRS,Pks13 thioesterase
COc1ncccc1CNC(=O)N1CCCC1c1ccsc1 (stereo not drawn),1.038%,5.455%,10.71%,-0.1335%
O=C(Nc1ccccc1-c1ccccc1)N1C[C@@H]2CNC[C@]2(C(=O)O)C1,-2.415%,-3.2%,-10.26%,-20.59%
CC(C)(C)c1noc(CCC(=O)N2CCN(Cc3ccco3)CC2)n1,-2.943%,7.977%,5.357%,-24.09%
Cc1cc(C)n(CC2CCCN2C(=O)c2cccc3c2OCO3)n1 (stereo not drawn),0.4838%,7.597%,16.51%,-16.11%
CC1(C)CC1(C(=O)N1CC(c2cccnc2)C1)c1ccccc1F (stereo not drawn),-2.874%,-4.3%,20.16%,-44.89%
CC(=O)N1CCCC2(C1)CN(c1ncc(C)cn1)CCO2 (stereo not drawn),-1.904%,15%,21.37%,-18.17%
Cc1ccc(C)c(CS(=O)(=O)CC(=O)NC(C)c2ccc(F)cc2F)c1 (stereo not drawn),5.722%,-5.579%,-5.479%,-9.433%
CNC(=O)NCc1nn(-c2ccccc2)c2c1CCC2,-1.352%,4.604%,18.35%,-7.644%
O=C(CN1C(=O)c2ccccc2CS1(=O)=O)c1ccccc1,-1.146%,3.205%,17.81%,-10.85%
COc1ccc(CN2CCN(S(=O)(=O)c3cc(C(=O)O)cs3)CC2)cc1,-2.233%,9.569%,11.67%,-10.84%
CN(Cc1cccc(-n2cccn2)c1)Cc1c[nH]cn1,0.6056%,-4.531%,10.59%,0.1934%
CCOc1cccc(CSC(C)c2nc(C)no2)n1 (stereo not drawn),-1.016%,-0.8872%,8.861%,8.569%
CNC(=O)C1Cn2ccnc2C2(CCN(c3ccc(C)nn3)CC2)O1 (stereo not drawn),-1.844%,-3.704%,15.79%,-30.07%
O=C(c1cccnc1)N1CCn2cc(CN3CCCC3)nc2C1,-0.4691%,1%,22%,-7.879%
CCOCCCNC(=O)Cc1cccc(F)c1,-1.095%,2.871%,4.959%,-3.546%
Clc1cccc(N2CCC(NCc3cc[nH]n3)C2)c1 (stereo not drawn),-2.755%,-3.507%,-8.065%,3.778%
Nc1nccc(C2CCCN(CC3CC3)C2)n1 (stereo not drawn),-1.015%,9.557%,5.674%,1.388%
Cc1ccc(C(=O)O)cc1CNC(=O)CN1CC[C@](C)(O)C(C)(C)C1,-5.176%,15.87% & 23.79%,31.33%,-22.79%
CC(=O)Nc1nc(C)c(S(=O)(=O)NCCc2cccnc2)s1,-,-6.386%,14.29%,-1.231%
CS(=O)(=O)NC[C@@H]1OC[C@H]2CN(Cc3ccccc3)CC[C@H]21,-,-2.927%,18.87%,3.389%
CN(C)c1cc(C2CCCN(C(=O)Cn3cc(Cl)cn3)C2)ccn1 (stereo not drawn),-7.529%,-2.596%,2.069%,11.89%
CN1CCCC1c1nnc2n1CCN(S(=O)(=O)c1ccccc1Cl)CC2 (stereo not drawn),-2.344%,-2.392%,14.39%,-13.45%
Cc1noc(C)c1CN1CCO[C@H]2CN(C3CCOCC3)C[C@H]21,-5.109%,-4.034%,6.195%,0.799%
Cc1nn(C)c(N2CCOCC2)c1CNCC1CCS(=O)(=O)C1 (stereo not drawn),-3.905%,-0.2439%,11.67%,4.855%
COc1ccccc1C(C)N1CCN(S(C)(=O)=O)CC1 (stereo not drawn),10.1%,3.212%,15.52%,-14.34%
CCN(CC)c1ccc(C(=O)N2CCC(c3nc(C)no3)CC2)cn1,-0.312%,3.836%,5.505%,-7.145%
O=C(c1cncs1)N1CCOC(c2cc(CCO)[nH]n2)C1 (stereo not drawn),-4.838%,-9.987%,14.49%,3.643%
Cc1[nH]ncc1CCCNC(=O)N1CCC(CC(N)=O)CC1,-0.3882%,3.297%,0%,-18.37%
CC(C)C1CN(Cc2nccn2C)CCC(=O)N1CC1CC1 (stereo not drawn),-4.366%,-2.808%,20%,-47.15%
C[S+]([O-])c1nncn1CC(=O)c1cccc(C(F)(F)F)c1 (stereo not drawn),-1.847%,3.863%,9.836%,-31.47%
CCNC(=O)N1CCN(Cc2nc3ccccc3[nH]2)[C@@H]2CS(=O)(=O)C[C@@H]21,-2.012%,4.405%,11.32%,-10.51%
Cc1noc(Cl)c1CCC(=O)N1CCN(Cc2ccncc2)CC1,5.952%,1.695%,11.4%,-16.92%
Cc1nnc(-c2cccc(C#N)c2)n1C1CCN(C2CC2)C1=O (stereo not drawn),4.591%,8.908%,13.25%,5.886%
Cc1cc(-c2cnc(C)nc2CN(C)C(=O)c2cc(C3CC3)on2)on1,-9.725%,-0.618%,6.207%,7.155%
CC(C)Nc1ncnc2c1CCN(c1cc(C(F)(F)F)ncn1)CC2,-5.297%,-5.484%,16.67%,-
CC(O)CNCc1c(C(C)C)nn(C)c1N1CCOCC1 (stereo not drawn),-3.075%,0.5263%,6.481%,-14.99%
CC(=O)N1CCNCC1c1cccc(C(=O)N(C)C)c1 (stereo not drawn),-1.756%,-10.56%,5.556%,-33.31%
CN1CCN(C(=O)c2nc3c(s2)CCCN3C(=O)C2CC2)CC1,0.07048%,7.822%,15.79%,-4.544%
Cc1ccc(C(=O)N2CC[C@H]3O[C@@H](c4noc(C)n4)C[C@H]3C2)o1,-1.205%,7.667%,17.81%,-23.46%